The target in experiment [1] is T1, Drosophila transcription factor bicoid (Drosophila) (UniProt P09081).
T1 sequence (looked up): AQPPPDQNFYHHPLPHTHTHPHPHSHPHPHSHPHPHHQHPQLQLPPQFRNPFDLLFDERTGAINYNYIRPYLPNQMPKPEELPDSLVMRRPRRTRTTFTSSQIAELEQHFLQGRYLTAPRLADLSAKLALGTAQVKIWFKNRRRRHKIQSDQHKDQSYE
In words: yeast interaction trap, panel of baits.

Protein sequences, listed by entry. Tags and fused reporters are not part of them. Residues count along the entry.
UniProt P19438, residues 355-442: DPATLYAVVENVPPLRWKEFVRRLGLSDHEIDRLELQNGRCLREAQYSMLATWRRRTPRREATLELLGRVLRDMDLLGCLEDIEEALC

Experiment [2] deals with TNF-R1-DD expressed as a GST fusion protein (UniProt P19438). In words: pull-down on glutathione beads, Western blot with anti-MBP antibody. On the technique in general: Immunoblotting shows a protein as a band on a membrane.

No constants are given. Whether binding was seen depends on the method and setting. For some assays here: In cells and extracts the contact can be indirect. Some binding calls cover weakened binding; strength is not graded here. For some assays here: Where a sequence is shown, tags or fusion partners need not be part of it.

This is an account of results in US20020164716A1.

B1: TNF-R1-DD ligand protein encoded by clone 1TU (ligand, not shown: large carriers)
chain: SLKANIPEVEAVLNTDRSLVCDGKRGLLTRLLQVMKKEPAESSFRFWQARAVESFLRGTTSYADQMFLLKRGLLEHILYCIVDSECKSRDVLQSYFDLLGELMKFNVDAFKRFNKYINTDAKFQVFLKQINSSLVDSNMLVRCVTLSLDRFENQVDMKVAEVLSECRLLAYISQVPTQMSFLFRLINIIHVQTLTQENVSCLNTSLVILMLARRKERLPLYLRLLQRMEHSKKYPGFLLNNFHNLLRFWQQHYLHKDKDSTCLENSSCISFSYWKETVSILLNPDRQSPSALVSYIEEPYMDIDRDFTEE
On to B1, for which the binding entry in experiment [1] is given as “binds”.

B2: MBP fusion protein containing 1TU (protein, not shown: large carriers)
chain: B1 chain
With B2, in experiment [2], the binding result was “binds”.
